According to paper doi:10.1101/2025.10.28.685088:
Where two headings read alike, the source gives them in different places. These are yes or no findings as the source states them, for the method shown. Binding seen in cells or lysates may run through a third protein. Here binding means that the protein was enriched with, or labelled near, the bait; the list need not be complete. For some assays here: No binding means not detected with the bait.

Amino acid sequences for entries named in this document (tags omitted). A change or cut given only in a name is not applied to a line headed by its entry.
UniProt F7VVC1: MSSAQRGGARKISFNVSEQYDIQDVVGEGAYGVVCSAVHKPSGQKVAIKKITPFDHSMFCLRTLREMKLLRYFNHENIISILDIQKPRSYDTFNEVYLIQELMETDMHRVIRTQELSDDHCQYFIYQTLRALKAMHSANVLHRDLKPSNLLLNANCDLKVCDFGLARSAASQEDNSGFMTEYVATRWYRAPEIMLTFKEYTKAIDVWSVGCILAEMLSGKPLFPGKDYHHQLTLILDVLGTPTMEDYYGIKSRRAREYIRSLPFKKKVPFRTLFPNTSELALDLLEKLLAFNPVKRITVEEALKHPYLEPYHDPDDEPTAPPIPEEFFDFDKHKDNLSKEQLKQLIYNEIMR
UniProt F7VW68: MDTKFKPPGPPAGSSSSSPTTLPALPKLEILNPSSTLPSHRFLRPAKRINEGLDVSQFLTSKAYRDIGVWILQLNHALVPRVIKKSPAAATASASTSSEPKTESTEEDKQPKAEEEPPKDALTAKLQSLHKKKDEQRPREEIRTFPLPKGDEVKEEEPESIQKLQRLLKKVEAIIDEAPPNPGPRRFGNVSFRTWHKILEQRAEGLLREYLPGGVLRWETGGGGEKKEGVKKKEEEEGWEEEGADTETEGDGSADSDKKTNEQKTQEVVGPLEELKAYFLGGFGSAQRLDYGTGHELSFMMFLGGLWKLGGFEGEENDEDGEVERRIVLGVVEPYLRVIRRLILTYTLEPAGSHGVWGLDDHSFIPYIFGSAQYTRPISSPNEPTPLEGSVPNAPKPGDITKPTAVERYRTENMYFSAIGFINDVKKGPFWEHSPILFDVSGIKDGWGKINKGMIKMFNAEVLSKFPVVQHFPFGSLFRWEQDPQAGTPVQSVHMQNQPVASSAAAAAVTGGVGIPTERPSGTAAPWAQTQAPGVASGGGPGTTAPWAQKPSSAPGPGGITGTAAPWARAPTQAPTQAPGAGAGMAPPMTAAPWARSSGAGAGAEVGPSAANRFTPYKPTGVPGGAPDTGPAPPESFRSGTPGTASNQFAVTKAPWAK
UniProt F7VT55: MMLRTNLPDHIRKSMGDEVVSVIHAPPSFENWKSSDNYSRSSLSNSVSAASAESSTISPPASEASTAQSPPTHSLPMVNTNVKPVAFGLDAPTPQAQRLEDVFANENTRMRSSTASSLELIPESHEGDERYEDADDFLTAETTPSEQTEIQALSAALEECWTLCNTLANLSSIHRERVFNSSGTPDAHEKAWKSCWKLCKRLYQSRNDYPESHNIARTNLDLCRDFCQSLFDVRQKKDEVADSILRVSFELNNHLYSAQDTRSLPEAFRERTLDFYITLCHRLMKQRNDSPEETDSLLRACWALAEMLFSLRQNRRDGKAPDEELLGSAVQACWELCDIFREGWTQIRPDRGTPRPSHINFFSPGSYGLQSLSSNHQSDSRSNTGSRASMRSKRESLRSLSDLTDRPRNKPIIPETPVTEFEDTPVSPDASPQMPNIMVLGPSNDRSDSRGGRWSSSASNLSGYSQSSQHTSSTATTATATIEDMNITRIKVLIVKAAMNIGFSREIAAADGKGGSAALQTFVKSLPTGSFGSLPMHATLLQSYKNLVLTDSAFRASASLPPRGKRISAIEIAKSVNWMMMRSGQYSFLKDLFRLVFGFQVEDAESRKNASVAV
UniProt F7VS01: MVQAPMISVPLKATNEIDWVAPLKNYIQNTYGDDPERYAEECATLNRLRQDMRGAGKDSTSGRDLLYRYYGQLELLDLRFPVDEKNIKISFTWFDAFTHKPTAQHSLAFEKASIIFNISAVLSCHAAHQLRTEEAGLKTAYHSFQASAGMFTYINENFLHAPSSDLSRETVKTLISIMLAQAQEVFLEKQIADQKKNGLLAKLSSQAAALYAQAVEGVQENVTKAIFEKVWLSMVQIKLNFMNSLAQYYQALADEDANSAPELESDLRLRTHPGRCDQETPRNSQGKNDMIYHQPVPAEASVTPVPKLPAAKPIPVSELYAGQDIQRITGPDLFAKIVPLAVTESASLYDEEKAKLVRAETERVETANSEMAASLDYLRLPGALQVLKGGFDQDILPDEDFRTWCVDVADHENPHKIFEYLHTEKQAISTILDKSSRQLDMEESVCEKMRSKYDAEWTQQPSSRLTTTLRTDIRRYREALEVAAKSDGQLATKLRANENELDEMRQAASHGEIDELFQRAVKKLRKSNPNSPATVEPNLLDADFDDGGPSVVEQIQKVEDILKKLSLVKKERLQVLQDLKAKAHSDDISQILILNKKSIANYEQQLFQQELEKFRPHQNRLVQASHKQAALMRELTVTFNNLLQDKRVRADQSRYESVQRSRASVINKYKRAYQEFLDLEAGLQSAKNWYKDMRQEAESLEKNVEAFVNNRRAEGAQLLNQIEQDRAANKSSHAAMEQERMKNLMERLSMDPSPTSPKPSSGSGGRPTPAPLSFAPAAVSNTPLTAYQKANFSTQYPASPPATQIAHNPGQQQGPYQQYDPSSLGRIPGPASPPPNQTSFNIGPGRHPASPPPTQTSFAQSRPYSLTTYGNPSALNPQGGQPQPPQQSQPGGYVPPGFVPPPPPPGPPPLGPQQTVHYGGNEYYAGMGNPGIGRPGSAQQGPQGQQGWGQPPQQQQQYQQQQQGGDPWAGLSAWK
UniProt F7VR91: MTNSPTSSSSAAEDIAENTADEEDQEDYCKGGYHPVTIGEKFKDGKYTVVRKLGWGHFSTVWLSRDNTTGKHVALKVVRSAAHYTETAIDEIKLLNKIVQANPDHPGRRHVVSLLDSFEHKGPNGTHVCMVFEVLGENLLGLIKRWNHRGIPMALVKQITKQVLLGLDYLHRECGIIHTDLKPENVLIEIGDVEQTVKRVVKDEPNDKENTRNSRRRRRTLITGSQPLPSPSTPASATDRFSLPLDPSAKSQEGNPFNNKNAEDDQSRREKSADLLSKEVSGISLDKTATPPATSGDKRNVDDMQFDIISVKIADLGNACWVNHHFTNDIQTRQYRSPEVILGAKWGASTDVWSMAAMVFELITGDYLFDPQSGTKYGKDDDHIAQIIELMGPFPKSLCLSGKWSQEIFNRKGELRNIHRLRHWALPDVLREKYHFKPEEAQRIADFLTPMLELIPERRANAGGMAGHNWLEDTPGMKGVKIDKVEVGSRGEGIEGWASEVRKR
UniProt F7VSX1: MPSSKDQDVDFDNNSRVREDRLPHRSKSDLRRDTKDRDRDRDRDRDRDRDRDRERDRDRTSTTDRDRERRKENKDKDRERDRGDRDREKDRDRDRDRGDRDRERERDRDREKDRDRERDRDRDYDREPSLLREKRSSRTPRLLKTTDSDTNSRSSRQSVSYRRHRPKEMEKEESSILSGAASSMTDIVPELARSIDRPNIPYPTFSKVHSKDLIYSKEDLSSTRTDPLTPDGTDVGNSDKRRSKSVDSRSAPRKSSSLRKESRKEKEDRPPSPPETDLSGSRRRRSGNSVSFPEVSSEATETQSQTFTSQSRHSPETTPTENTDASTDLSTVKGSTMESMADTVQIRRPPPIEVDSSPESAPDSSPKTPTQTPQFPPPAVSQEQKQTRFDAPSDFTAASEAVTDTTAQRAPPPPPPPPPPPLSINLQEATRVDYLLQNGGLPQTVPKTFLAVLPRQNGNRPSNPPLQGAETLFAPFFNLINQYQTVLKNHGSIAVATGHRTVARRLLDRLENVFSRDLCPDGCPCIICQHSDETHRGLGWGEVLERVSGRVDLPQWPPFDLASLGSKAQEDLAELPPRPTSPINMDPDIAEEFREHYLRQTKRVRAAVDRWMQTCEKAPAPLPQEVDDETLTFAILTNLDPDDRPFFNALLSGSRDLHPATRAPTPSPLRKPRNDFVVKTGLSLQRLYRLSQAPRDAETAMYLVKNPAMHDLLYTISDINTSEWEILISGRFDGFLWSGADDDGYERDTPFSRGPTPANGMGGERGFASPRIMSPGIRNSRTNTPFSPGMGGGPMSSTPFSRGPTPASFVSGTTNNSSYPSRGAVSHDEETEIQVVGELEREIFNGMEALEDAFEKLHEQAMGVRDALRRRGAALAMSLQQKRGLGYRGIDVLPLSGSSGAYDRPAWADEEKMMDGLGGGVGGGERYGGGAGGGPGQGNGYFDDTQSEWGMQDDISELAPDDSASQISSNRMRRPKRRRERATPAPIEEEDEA
UniProt F7W136: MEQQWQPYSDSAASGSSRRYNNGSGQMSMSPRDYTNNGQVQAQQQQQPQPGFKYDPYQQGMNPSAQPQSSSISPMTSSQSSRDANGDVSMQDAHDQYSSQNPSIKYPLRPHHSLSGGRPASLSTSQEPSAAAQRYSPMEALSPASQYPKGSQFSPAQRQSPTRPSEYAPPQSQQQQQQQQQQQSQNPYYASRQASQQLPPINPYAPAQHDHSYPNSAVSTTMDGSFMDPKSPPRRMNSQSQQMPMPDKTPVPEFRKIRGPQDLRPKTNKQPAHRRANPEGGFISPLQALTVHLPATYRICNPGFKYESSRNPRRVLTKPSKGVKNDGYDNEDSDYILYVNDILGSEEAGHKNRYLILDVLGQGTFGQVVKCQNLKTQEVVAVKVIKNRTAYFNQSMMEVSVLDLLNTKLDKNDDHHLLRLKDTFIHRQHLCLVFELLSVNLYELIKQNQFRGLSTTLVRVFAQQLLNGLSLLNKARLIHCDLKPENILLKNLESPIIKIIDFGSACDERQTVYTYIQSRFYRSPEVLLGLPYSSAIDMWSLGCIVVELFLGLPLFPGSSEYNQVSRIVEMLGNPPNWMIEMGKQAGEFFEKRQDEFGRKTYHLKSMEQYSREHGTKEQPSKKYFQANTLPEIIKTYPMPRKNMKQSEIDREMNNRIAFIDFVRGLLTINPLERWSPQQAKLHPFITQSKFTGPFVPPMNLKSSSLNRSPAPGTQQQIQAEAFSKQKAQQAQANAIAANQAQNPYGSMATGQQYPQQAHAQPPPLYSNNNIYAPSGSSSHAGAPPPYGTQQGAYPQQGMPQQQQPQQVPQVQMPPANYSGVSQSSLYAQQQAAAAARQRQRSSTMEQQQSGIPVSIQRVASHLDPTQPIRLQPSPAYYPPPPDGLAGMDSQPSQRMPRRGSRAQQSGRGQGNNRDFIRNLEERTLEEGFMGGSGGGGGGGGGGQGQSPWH

How the values were obtained:
Experiment in all cases: proximity labelling
[1] = biological target: SmDOC1-TurboID (Sordaria macrospora) (UniProt F7W7B4)
[2] = biological target: SmDOC2-TurboID (Sordaria macrospora) (UniProt F7W7B3)
[3] = biological target: SCI1-TurboID (STRIPAK complex interactor 1 fused to the TurboID biotin ligase) (Sordaria macrospora)
[4] = biological target: SCI1-TurboID (STRIPAK complex interactor 1 fused to the TurboID biotin ligase) (Sordaria macrospora); remark: listed apart in the source

| Molecule | binding [1] | binding [2] | binding [3] | binding [4] |
| --- | --- | --- | --- | --- |
| MAK2 (from UniProt F7VVC1) | – | binds | – | – |
| MEK2-t1 (from UniProt F7W4K9) | binds | binds | – | – |
| PP2A phosphatase activator PTPA1 (from UniProt F7VW68) | – | binds | – | – |
| SMAC_05755 (from UniProt F7VT55) | binds | binds | – | – |
| SmBRO1 (from UniProt F7VS01) | – | binds | – | – |
| protein kinase DSK1 (from UniProt F7VR91) | – | binds | – | – |
| PRO11 (protein, UniProt Q70M86 1-845) MGTNGVHVSFGAGHEMGGVMGNGSGQPPATEYTLQGVMRFLQTEWHRHERDRNAWEIEKQEMRARIANLEGQARRADATQKALKRYVSILEKKVKEQSAALKSGGKEKGVEDEAEAEDNKTKLDRSALIQEKLRPNTKLSGAPNEAENVEIGPPDDESARNELKTFLDQCQAEFTYLMVTPANPQPPRESPPLPILDDFREGEALNQQLEQSYQRSQQSQIRDLLAQQAAAANATNVAAVQSQQQQPQQQQHAVGPRPQTNQPPKGYGELAQGAPMERSSRGQQLHDILKSGETPDWSASMQSQPVEEPTSALSKAPPMVRGDGREPAVPKSASTTDAWDFNESNFQDPNAMPQPTPQQSFSSRPDTDAFPSAENLTKSPNRGALSHRRKSSSGMARRRSAEHELSLGSLQQKAEGTMFKFRFGLRGHLDVVRTVIFSGGGSPGEPEICTAGDDGLVKRFHIPDRHIGQRNADGDLDVAADFTHRGHSGAVLSLASWSPSPNFSTGGRAQGDGWIFSGGQDATIRVWERGRVDPKATLDGHTDAVWALCVLPTNLGAIFGQTNSHGPPDRILLVSGAADGTVKVWAVSAPPQLTSPQPGPGRRGPGGRVRGNSMSSGSAFPSSPQPTTASNSPFHHTLVHTIKRANSEASPTCITALSPNGETFAVSYADAAIIVYDTRSGEEIGTMASLDTYDGTNNTAVNAVVATTVGLDQTQGPGGEDESGGGPTGGGRSMAGSGVEGTIISGHEDRYIRFFDANSGQCTYNMLAHPGSVSSLSLSPDGRELVSAGHDMSLRFWSLETRSCTQEMTCHRSMRGEGVCAVVWSQDGRWVVSSGGDGMVKVYAR | – | – | binds | binds |

Results, then the molecule that gave them:

| binding [1] | binding [2] | binding [3] | binding [4] | Molecule |
| --- | --- | --- | --- | --- |
| binds | no binding | – | – | HAM5 (from UniProt F7VPN9) |
| binds | – | – | – | SMAC_05428 (from UniProt F7VSX1) |
| binds | – | – | – | SmDOC2 (from UniProt F7W7B3) |
| binds | – | – | – | protein kinase YAK1 (from UniProt F7W136) |
| – | – | binds | binds | PRO22 (protein, UniProt F7VWV9 1-1120) MTIMNALWSKATSSSGDSAQKSAKPTNDAVNTTSEALPDLSERPNAPALPARPALQRNQPSAPPPAAPSNPPPPVPSGSGSGNANNASAQPQDSLSLAQLRRIVAEFPKSEPIAYDYVYSDMGPIEEEVDEWFFYDFWQYVRLNNANHAFDSAWVKMYGEDETWESVDDDGREKFVRNEVEQLQVSSDKTARVEAIGTLLYIVLGRWTATVKKANLPNLADHKVKSAATKEQLDAMKAGVKLLAKYGGLPPMWDALRKAFELFWADDGDASQRVQANNEELMELMHLMTILYISLQTTMDDVEDMAVARKELLALNPNLVHFMLHATAKLRWDDRNILPQAQVGSATFGIPVAANQHRMLMSSQVFLLFWKSLLLVFGGSKHIAEAKKATAETLSDVKDKEIITASPLDYHVFRQEITSKYPSYIPPQCAIPLEAEQTSILPPLPNHPTRNNGQNGILPGPPNQSASASILHQPVHIATPAPSPPPSPGVGGKGGKKQNYQTNQNFPFMYPPLDATSNSAGGKGGAGLQDLLVGRKWEGSDVPASIIEAGELFSTRTRMTRATRQLWEERERFLKFERGWEGADEDLIDELDLSELTLEEKEELGLLKESEKKKEKHGHEIDLGPRPVDDDIKRRLEAVEEFYKEALPHLQSLVIVLLKAIVAIASSFVQPPPGQQNPGPQNNGRAGGGPPQGRGQNNGNNASNDPPSPSDDNVDEARSREIAAKAVTGIMILLLKWLKLSHILKFEYFTQLLLDSNYLPLVLKLFALHDVQQVVESKTDRIEHSFFYFCASRSGVIPPQGLINPTATDFEDVDVSEDEAAPPAIKRNRSPPGAEKGGPPDASSQPTQQQQQQQRFENSDVQSRPEVDELGYPVNPLPKEPITDFSRRNFFSLINYLRVMQKICKHKAHRNLLLVHYKSSNILRKSLKVPQQELRLYTLKLFKNQVPYCGRKWRQSNMRVITAIYLHCRPELRDEWLSGSDVDAEVEEALPLEQALRSLTHWFNVQRYPERMGAEVTAAMREERDFFTRELEKSDWMGWEGIMAGGGMGMDGGGGGPEPMMGMQGMQGMPGMPGMGMGMNMGMPGMGIGGMPGMGGMAGIEYAAAAAAAQTEHENSMGWS |
